Reference: PubChem BioAssay AID1224828 (NIAID, 2016)

Assay: 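Knock-downs that increase or decrease LPS-induced p65 nuclear translocation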 (primary screen)
Cells: mouse RAW264.7 G9 macrophage reporter cells (GFP-p65, Tnf promoter-mCherry)
Knock-down reagent: siRNA pool against mouse genes, 100 nM
Time to read-out: 2 days siRNA transfection, then 40 min LPS before fixation
Conditions: LPS (Salmonella minnesota R595) at 10 ng/ml
Read-out: 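Microscopy ratio of nuclear to perinuclear-ring GFP-p65 signal, scaled to the plate median; gene score is the average of two replicate robust z-scores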
Reading the numbers: p65 translocation robust z-score: higher = more nuclear NF-kappaB p65 after LPS than the plate median; nuclear/cytoplasmic p65 ratio: higher = more nuclear NF-kappaB p65
Rule for the call: 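Called active when z exceeds 3.3 or falls under -1.56 (median of Tlr4 controls), giving activity score of at least 50; no calls for control wells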
Meaning of the calls: active = hit (p65 shift raised or lowered); inactive = no clear change
Shown is a random part of about 17,000 deposited reagents. Over the whole deposit, 762 (4.5%) were called active. 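Active calls include both raised and lowered p65 entry, mostly lowered; wells with fewer than 50 cells lack a z-score.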 Raw values vary from plate to plate and are shown uncorrected. Reagents against one gene are numbered here.

| gene symbol | reagent no. | p65 translocation robust z-score | nuclear/cytoplasmic p65 ratio, rep 1 | nuclear/cytoplasmic p65 ratio, rep 2 | low cell count flag | Call |
| --- | --- | --- | --- | --- | --- | --- |
| Hesx1 (GeneID 15209) | 1 | 0.57 | 1.42 | 1.54 | enough cells to score | inactive |
| Or55b4 (GeneID 257926) | 1 | 0.25 | 1.52 | 1.23 | enough cells to score | inactive |
| Col26a1 (GeneID 140709) | 1 | 0.62 | 1.57 | 1.42 | enough cells to score | inactive |
| Dio2 (GeneID 13371) | 1 | 0.26 | 1.56 | 1.34 | enough cells to score | inactive |
| Reln (GeneID 19699) | 1 | 0.34 | 1.57 | 1.56 | enough cells to score | inactive |
| Cyb5r4 (GeneID 266690) | 1 | 1.27 | 1.62 | 1.49 | enough cells to score | inactive |
| 1700055D18Rik (GeneID 73405) | 1 | 2.36 | 1.6 | 1.83 | enough cells to score | inactive |
| Inmt (GeneID 21743) | 1 | 2 | 1.6 | 1.43 | enough cells to score | inactive |
| Galt (GeneID 14430) | 1 | 1.42 | 1.54 | 1.63 | enough cells to score | inactive |
| Cartpt (GeneID 27220) | 1 | -0.37 | 1.5 | 1.61 | enough cells to score | inactive |
| Ccdc63 (GeneID 330188) | 1 | – | 1.5 | 1.36 | fewer than 50 cells per well; well left out of scoring | inactive |
| Oog1 (GeneID 193322) | 1 | 0.55 | 1.55 | 1.27 | enough cells to score | inactive |
| Mapk9 (GeneID 26420) | 1 | -0.7 | 1.74 | 1.29 | enough cells to score | inactive |
| Timm21 (GeneID 67105) | 1 | 0.03 | 1.6 | 1.64 | enough cells to score | inactive |
| Exoc6 (GeneID 107371) | 1 | -1.2 | 1.16 | 1.12 | enough cells to score | inactive |
| Btg2 (GeneID 12227) | 1 | -0.02 | 1.65 | 1.57 | enough cells to score | inactive |
| Col19a1 (GeneID 12823) | 1 | 0.06 | 1.55 | 1.32 | enough cells to score | inactive |
| Hdgfl3 (GeneID 29877) | 1 | -0.29 | 1.71 | 1.4 | enough cells to score | inactive |
| Adarb2 (GeneID 94191) | 1 | -1 | 1.44 | 1.54 | enough cells to score | inactive |
| Srprb (GeneID 20818) | 1 | – | 1.56 | 1.2 | fewer than 50 cells per well; well left out of scoring | inactive |
| Gm4922 (GeneID 237300) | 1 | 2.34 | 1.66 | 1.77 | enough cells to score | inactive |
| Ttc34 (GeneID 242800) | 1 | 0.17 | 1.55 | 1.62 | enough cells to score | inactive |
| Zfp422 (GeneID 67255) | 1 | 0.18 | 1.56 | 1.36 | enough cells to score | inactive |
| Ttll3 (GeneID 101100) | 1 | 1.79 | 1.5 | 1.35 | enough cells to score | inactive |
| Nf1 (GeneID 18015) | 1 | -1.27 | 1.21 | 1.19 | enough cells to score | inactive |
| Slco3a1 (GeneID 108116) | 1 | – | 1.38 | 1.27 | fewer than 50 cells per well; well left out of scoring | inactive |
| Mtfr1l (GeneID 76824) | 1 | -0.55 | 1.31 | 1.41 | enough cells to score | inactive |
| Zp2 (GeneID 22787) | 1 | 0.7 | 1.66 | 1.66 | enough cells to score | inactive |
| Chit1 (GeneID 71884) | 1 | 0.36 | 1.64 | 1.42 | enough cells to score | inactive |
| Klhdc4 (GeneID 234825) | 1 | -0.25 | 1.6 | 1.73 | enough cells to score | inactive |
| Vmn2r81 (GeneID 216144) | 1 | -0.57 | 1.5 | 1.62 | enough cells to score | inactive |
| Tmem140 (GeneID 68487) | 1 | -0.14 | 1.51 | 1.43 | enough cells to score | inactive |
| Dsg1a (GeneID 13510) | 1 | -2.04 | 1.19 | 1.11 | enough cells to score | active |
| Cdrt4 (GeneID 66338) | 1 | – | 1.65 | 1.93 | fewer than 50 cells per well; well left out of scoring | inactive |
| Ldah (GeneID 68832) | 1 | – | 2.4 | 1.41 | fewer than 50 cells per well; well left out of scoring | inactive |
| Plekhf1 (GeneID 72287) | 1 | 1.78 | 1.57 | 1.45 | enough cells to score | inactive |
| Ttc39a (GeneID 230603) | 1 | – | 1.39 | 1.31 | fewer than 50 cells per well; well left out of scoring | inactive |
| Prss28 (GeneID 114661) | 1 | -0.51 | 1.47 | 1.37 | enough cells to score | inactive |
| Eif3k (GeneID 73830) | 1 | 0.84 | 1.47 | 1.53 | enough cells to score | inactive |
| Ppdpf (GeneID 66496) | 1 | – | 1.21 | 1.04 | fewer than 50 cells per well; well left out of scoring | inactive |
| Slc26a4 (GeneID 23985) | 1 | -0.02 | 1.45 | 1.58 | enough cells to score | inactive |
| Med14 (GeneID 26896) | 1 | -0.14 | 1.48 | 1.22 | enough cells to score | inactive |
| Or2aj5 (GeneID 258959) | 1 | 0.07 | 1.65 | 1.4 | enough cells to score | inactive |
| Krt88 (GeneID 66322) | 1 | -0.3 | 1.36 | 1.37 | enough cells to score | inactive |
| Retreg2 (GeneID 227298) | 1 | 1.31 | 1.55 | 1.76 | enough cells to score | inactive |
| Creg2 (GeneID 263764) | 1 | 0.98 | 1.69 | 1.98 | enough cells to score | inactive |
| Parvb (GeneID 170736) | 1 | – | 1.24 | 1.11 | fewer than 50 cells per well; well left out of scoring | inactive |
| Tepsin (GeneID 78777) | 1 | – | 1.29 | 1.15 | fewer than 50 cells per well; well left out of scoring | inactive |
| Flrt3 (GeneID 71436) | 1 | 0.52 | 1.62 | 1.58 | enough cells to score | inactive |
| H2-D1 (GeneID 14964) | 1 | – | 1.15 | 1.21 | fewer than 50 cells per well; well left out of scoring | inactive |
| Rgs19 (GeneID 56470) | 1 | -1.47 | 1.3 | 1.38 | enough cells to score | inactive |
| Aldoart2 (GeneID 79459) | 1 | – | 1.25 | 1.31 | fewer than 50 cells per well; well left out of scoring | inactive |
| Myl7 (GeneID 17898) | 1 | -0.22 | 1.39 | 1.33 | enough cells to score | inactive |
| Gfra1 (GeneID 14585) | 1 | 0.12 | 1.46 | 1.38 | enough cells to score | inactive |
| Isg20l2 (GeneID 229504) | 1 | -0.13 | 1.67 | 1.66 | enough cells to score | inactive |
| Tnk2 (GeneID 51789) | 1 | – | 1.67 | 1.38 | fewer than 50 cells per well; well left out of scoring | inactive |
| St14 (GeneID 19143) | 1 | – | 1.41 | 1.36 | fewer than 50 cells per well; well left out of scoring | inactive |
| Ddx1 (GeneID 104721) | 1 | 0.1 | 1.59 | 1.59 | enough cells to score | inactive |
| Pcdhgb8 (GeneID 93705) | 1 | -1.26 | 1.27 | 1.14 | enough cells to score | inactive |
| Ghrl (GeneID 58991) | 1 | -1.3 | 1.06 | 1.23 | enough cells to score | inactive |
| Rab15 (GeneID 104886) | 1 | 0.1 | 1.44 | 1.18 | enough cells to score | inactive |
| Upf1 (GeneID 19704) | 1 | -1.02 | 1.4 | 1.35 | enough cells to score | inactive |
| Cog1 (GeneID 16834) | 1 | -0.14 | 1.63 | 1.7 | enough cells to score | inactive |
| Srcin1 (GeneID 56013) | 1 | – | 1.48 | 1.18 | fewer than 50 cells per well; well left out of scoring | inactive |
| Or4c12 (GeneID 258338) | 1 | 1.91 | 1.79 | 1.76 | enough cells to score | inactive |
| Ccdc47 (GeneID 67163) | 1 | – | 1.37 | 1.41 | fewer than 50 cells per well; well left out of scoring | inactive |
| Vti1a (GeneID 53611) | 1 | -0.01 | 1.48 | 1.15 | enough cells to score | inactive |
| Vti1a (GeneID 53611) | 2 | – | 1.33 | 1.5 | fewer than 50 cells per well; well left out of scoring | inactive |
| Ifit3 (GeneID 15959) | 1 | -0.42 | 1.32 | 1.34 | enough cells to score | inactive |
| Cdcp1 (GeneID 109332) | 1 | 0.66 | 1.56 | 1.44 | enough cells to score | inactive |
| Ing1 (GeneID 26356) | 1 | -0.62 | 1.4 | 1.29 | enough cells to score | inactive |
| Psmd7 (GeneID 17463) | 1 | – | 1.29 | 1.22 | fewer than 50 cells per well; well left out of scoring | inactive |
| Smap1 (GeneID 98366) | 1 | -0.86 | 1.26 | 1.13 | enough cells to score | inactive |
| Rhox4e (GeneID 194856) | 1 | 0.55 | 1.78 | 1.65 | enough cells to score | inactive |
| Anks4b (GeneID 72074) | 1 | 0.94 | 1.58 | 1.69 | enough cells to score | inactive |

11 entries from above, set out differently.
Cartpt (GeneID 27220)
- p65 translocation robust z-score: -0.37
- nuclear/cytoplasmic p65 ratio, rep 1: 1.5
- nuclear/cytoplasmic p65 ratio, rep 2: 1.61
- low cell count flag: enough cells to score
- Call: inactive

Ccdc63 (GeneID 330188)
- nuclear/cytoplasmic p65 ratio, rep 1: 1.5
- nuclear/cytoplasmic p65 ratio, rep 2: 1.36
- low cell count flag: fewer than 50 cells per well; well left out of scoring
- Call: inactive

Oog1 (GeneID 193322)
- p65 translocation robust z-score: 0.55
- nuclear/cytoplasmic p65 ratio, rep 1: 1.55
- nuclear/cytoplasmic p65 ratio, rep 2: 1.27
- low cell count flag: enough cells to score
- Call: inactive

Mapk9 (GeneID 26420)
- p65 translocation robust z-score: -0.7
- nuclear/cytoplasmic p65 ratio, rep 1: 1.74
- nuclear/cytoplasmic p65 ratio, rep 2: 1.29
- low cell count flag: enough cells to score
- Call: inactive

Timm21 (GeneID 67105)
- p65 translocation robust z-score: 0.03
- nuclear/cytoplasmic p65 ratio, rep 1: 1.6
- nuclear/cytoplasmic p65 ratio, rep 2: 1.64
- low cell count flag: enough cells to score
- Call: inactive

Exoc6 (GeneID 107371)
- p65 translocation robust z-score: -1.2
- nuclear/cytoplasmic p65 ratio, rep 1: 1.16
- nuclear/cytoplasmic p65 ratio, rep 2: 1.12
- low cell count flag: enough cells to score
- Call: inactive

Btg2 (GeneID 12227)
- p65 translocation robust z-score: -0.02
- nuclear/cytoplasmic p65 ratio, rep 1: 1.65
- nuclear/cytoplasmic p65 ratio, rep 2: 1.57
- low cell count flag: enough cells to score
- Call: inactive

Col19a1 (GeneID 12823)
- p65 translocation robust z-score: 0.06
- nuclear/cytoplasmic p65 ratio, rep 1: 1.55
- nuclear/cytoplasmic p65 ratio, rep 2: 1.32
- low cell count flag: enough cells to score
- Call: inactive

Hdgfl3 (GeneID 29877)
- p65 translocation robust z-score: -0.29
- nuclear/cytoplasmic p65 ratio, rep 1: 1.71
- nuclear/cytoplasmic p65 ratio, rep 2: 1.4
- low cell count flag: enough cells to score
- Call: inactive

Adarb2 (GeneID 94191)
- p65 translocation robust z-score: -1
- nuclear/cytoplasmic p65 ratio, rep 1: 1.44
- nuclear/cytoplasmic p65 ratio, rep 2: 1.54
- low cell count flag: enough cells to score
- Call: inactive

Srprb (GeneID 20818)
- nuclear/cytoplasmic p65 ratio, rep 1: 1.56
- nuclear/cytoplasmic p65 ratio, rep 2: 1.2
- low cell count flag: fewer than 50 cells per well; well left out of scoring
- Call: inactive
